# Test results as given in article PMC6069705.
# No constants are given. Whether binding was seen depends on the method and setting. In cells and extracts the contact can be indirect. Here binding means that the protein was enriched with, or labelled near, the bait; the list need not be complete.
# B1: hnRNPL (protein, UniProt Q8R081 1-586)
# chain: MSRRLLPRAEKRRRRLEQRQQPDEQLRRAGAMVKMAAAGGGGGGGRYYGGGNEGGRAPKRLKTENAGDQHGGGGGGGSGAAGGGGGENYDDPHKTPASPVVHIRGLIDGVVEADLVEALQEFGPISYVVVMPKKRQALVEFEDVLGACNAVNYAADNQIYIAGHPAFVNYSTSQKISRPGDSDDSRSVNSVLLFTILNPIYSITTDVLYTICNPCGPVQRIVIFRKNGVQAMVEFDSVQSAQRAKASLNGADIYSGCCTLKIEYAKPTRLNVFKNDQDTWDYTNPNLSGQGDPGSNPNKRQRQPPLLGDHPAEYGGPHGGYHSHYHDEGYGPPPPHYEGRRMGPPVGGHRRGPSRYGPQYGHPPPPPPPPDYGPHADSPVLMVYGLDQSKMNCDRVFNVFCLYGNVEKVKFMKSKPGAAMVEMADGYAVDRAITHLNNNFMFGQKMNVCVSKQPAIMPGQSYGLEDGSCSYKDFSESRNNRFSTPEQAAKNRIQHPSNVLHFFNAPLEVTEENFFEICDELGVKRPTSVKVFSGKSERSSSGLLEWDSKSDALETLGFLNHYQMKNPNGPYPYTLKLCFSTAQHAS
# B2: hnRNPR (protein, UniProt Q8VHM5 1-632)
# chain: MANQVNGNAVQLKEEEEPMDTSSVTHTEHYKTLIEAGLPQKVAERLDEIFQTGLVAYVDLDERAIDALREFNEEGALSVLQQFKESDLSHVQNKSAFLCGVMKTYRQREKQGSKVQESTKGPDEAKIKALLERTGYTLDVTTGQRKYGGPPPDSVYSGVQPGIGTEVFVGKIPRDLYEDELVPLFEKAGPIWDLRLMMDPLSGQNRGYAFITFCGKEAAQEAVKLCDSYEIRPGKHLGVCISVANNRLFVGSIPKNKTKENILEEFSKVTEGLVDVILYHQPDDKKKNRGFCFLEYEDHKSAAQARRRLMSGKVKVWGNVVTVEWADPVEEPDPEVMAKVKVLFVRNLATTVTEEILEKSFSEFGKLERVKKLKDYAFVHFEDRGAAVKAMDEMNGKEIEGEEIEIVLAKPPDKKRKERQAARQASRSTAYEDYYYHPPPRMPPPMRGRGRGGRGGYGYPPDYYGYEDYYDDYYGYDYHDYRGGYEDPYYGYDDGYAVRGRGGGRGGRGAPPPPRGRGAPPPRGRAGYSQRGAPLGPPRGSRGGRGGPAQQQRGRGSRGARGNRGGNVGGKRKADGYNQPDSKRRQTNNQQNWGSQPIAQQPLQQGGDYSGNYGYNNDNQEFYQDTYGQQWK
# B3: HNRNPA0 (protein, UniProt Q9CX86 1-305)
# chain: MENSQLCKLFIGGLNVQTSESGLRGHFEAFGTLTDCVVVVNPQTKRSRCFGFVTYSNVEEADAAMAASPHAVDGNTVELKRAVSREDSARPGAHAKVKKLFVGGLKGDVAEGDLIEHFSQFGAVEKAEIIADKQSGKKRGFGFVYFQSHDAADKAAVVKFHPIQGHRVEVKKAVPKEDIHAGGGGARAARGGRGGGRGRGGGGGGGGRDQNGLAKGGGGGGGGYNSYGGYGGYGAYGGGGGGGGSYGGSDYGNGFGGFGSYSQHQSSYGPMKSGGGGGGGGSWGGRSNSGPYRGGYGGGYGGGSF
# Target: human tau P301L 4R0N (rTg4510 transgene) (human)
# Assay: affinity purification with mass spectrometry; tau immunoprecipitated from 1 mg cortex lysate (RIPA buffer) of 2.5 month old induced or uninduced (doxycycline) rTg4510 mice with 10 ug Tau13 immobilised on Pierce Direct IP columns; eluates run on a gel, LC-MS/MS; proteins pulled down from MAPT-/- mice removed; n = 4/group
row,Binder,binding
1,B1,binds
2,B2,binds
3,B3,binds
